Laboratory results published in patent US20240417457A1.
No constants are given. Whether binding was seen depends on the method and setting. Some binding calls cover weakened binding; strength is not graded here.

By UniProt entry, the sequences of proteins in these tests, tags left out. Residues count along the entry.
UniProt P15328, residues 25-234: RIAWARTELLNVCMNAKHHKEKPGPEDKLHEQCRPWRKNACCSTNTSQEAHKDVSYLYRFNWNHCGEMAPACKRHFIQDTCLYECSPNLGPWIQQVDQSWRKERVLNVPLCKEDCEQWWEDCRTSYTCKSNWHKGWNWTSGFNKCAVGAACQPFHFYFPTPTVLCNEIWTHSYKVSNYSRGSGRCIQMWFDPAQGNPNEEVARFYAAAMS

Assays:
[1] = molecular target: FRα covalently bound to a CM5 sensor chip (UniProt P15328); assay: SPR (Biacore T200), FRα amine-coupled to a CM5 chip; fast dissociation, the binding of MOv18 FAb was substantially nil at time 300 sec
[2] = molecular target: alpha-folate receptor (FRα) on tumor cells (UniProt P15328); assay: FACS on tumor cells, 10 µg/ml, Alexa488 anti mouse detection

binding [1]: binds
binding [2]: binds
B1: MOv18 Fab (SEQ. ID. NOs: 7-8) (Fab, V domains shown)
VH: QVQLQQSGAELARPGASVKLSCKASDYIFTNYDITWVKQRPGQGLEWIGEIDPRSGKSYYNEKFKGKSTLTADKSSSTAYMELRSLTSEDSAVYFCATMYYYGSSPPMDYWGQGTSVTVSR
VL: DIQMTQTTSSLSASLGDRVTISCRASQDINNFLNWYQQKPDGTVKLLIYYTSRLHSGVPSRFSGSGSGTDYSLTIINLEQEDIAIYFCQQSSTIPRTFGQGTKLEIK
